# Assay results published in PubChem BioAssay AID590 (National Center for Advancing Translational Sciences (NCATS), 2007).
# About 6,500 (11%) of roughly 59,000 compounds were called active. The shares of active, inactive and inconclusive entries below differ from those in the screen. Rule as the data show it: active = max dye-equivalent concentration above about 10 nM; inconclusive = mostly about 1.1 nM to 9.6 nM; inactive = weaker than that.
# Test: qHTS Assay for Spectroscopic Profiling in A350 Spectral Region
# Conditions: Compound autofluorescence, 340/450 nm, Alexa 350 dye-equivalents; stronger effect = higher value
row,SMILES,max dye-equivalent concentration
1,CCOc1ccc(S(=O)(=O)Nc2ccccc2C(=O)NCc2ccco2)cc1,inconclusive: 7.2 nM
2,COCCn1c(=NC(=O)c2ccc3c(c2)OCO3)c(C#N)cc2c(=O)n3cccc(C)c3nc21,active: 17 nM
3,O=C(COc1ccccc1)NCCn1ccc2ccccc21,inconclusive: 1.3 nM
4,COCCn1c(=N)c(C(=O)NCCc2ccc(OC)cc2)cc2c(=O)n3cccc(C)c3nc21,active: 510 nM
5,COc1ccc(C(=O)N2CCC3(CCCN(c4cccc(-c5ccccc5)c4)C3)CC2)cc1,inactive
6,Cc1nn(Cc2ccc(F)cc2)c(C)c1NC(=O)c1cc(-c2ccc3c(c2)OCO3)on1,inconclusive: 4.7 nM
7,CC(C)Sc1nnc([C@@H]2CCCN2C(=O)OC(C)(C)C)o1,inconclusive: 6.4 nM
8,CCCS(=O)(=O)N1CCC(C(=O)N2CCCC2)CC1,inactive
9,COc1ccc(C2CC(=O)Nc3ccccc3S2(=O)=O)cc1OC (stereo unspecified),inconclusive: 5.8 nM
10,O=C(CCCN1C(=O)c2ccccc2C1=O)Nc1nncs1,inconclusive: 4.6 nM
11,CCCCn1c(SCC(=O)Nc2cc(C)on2)nnc1-c1cccnc1,inconclusive: 2.9 nM
12,O=C(NCCCO)c1ccc2[nH]c3ccccc3c2c1,inactive
13,CCOC(=O)CSc1nc2cc(C(=O)NCc3ccco3)ccc2c(=O)n1C1CCCCC1,inconclusive: 6.9 nM
14,CSc1nc2c(c(=O)[nH]1)C(c1cccs1)C1=C(CCCC1=O)N2 (stereo unspecified),active: 22 nM
15,CCOC(=O)c1c(NC(=O)CSc2nnnn2CC)sc(C)c1C,inconclusive: 2.8 nM
16,COC(=O)Nc1nnc(-c2ccccc2Cl)s1,inconclusive: 6.4 nM
17,NC(=O)C1(N2CCCCC2)CCN(C(=O)c2cccn3c(=O)c4cc(Cl)ccc4nc23)CC1,active: 600 nM
18,c1ccc2c(N3CCOCC3)nc(-c3ccoc3)nc2c1,inconclusive: 1.4 nM
19,C[N@@+]1(CC[N@@+]2(C)CCC[C@H]2c2cccnc2)CCC[C@@H]1c1cccnc1,inconclusive: 1.5 nM
20,CCC(=O)Nc1nonc1-c1nc2ccccc2n1Cc1ccccc1,inactive
21,O=S(=O)(Nc1nc2ccccc2s1)c1ccc(Br)s1,inactive
22,CCOC(=O)c1cc2c(=O)n3ccccc3nc2n(CC2CCCO2)c1=NC(C)=O (stereo unspecified),active: 1700 nM
23,Cc1ccc(S(=O)(=O)NCC(=O)NC2CCCC2)cc1,inconclusive: 1.1 nM

row,SMILES,max dye-equivalent concentration
1,O=C1C=CC(=Nc2cccc3c(N=C4C=CC(=O)O4)cccc23)O1,inactive
2,O=C(c1cccc(S(=O)(=O)N2CCCC2)c1)N1CCN(c2ccccc2)CC1,inconclusive: 1.9 nM
3,O=c1c(-c2cccc(Cl)c2)nc2cncnc2n1Cc1ccccc1Cl,inconclusive: 1.2 nM
4,CCCn1c(SCC(=O)N2CCN(c3ccccc3)CC2)nc2ccccc2c1=O,inactive
5,CCC(=O)N1CCc2cc(Br)cc(S(=O)(=O)CC(=O)OC)c21,inactive
6,CN(CC(=O)O)CC(=O)O,inactive
7,O=C1CCCC/C1=C\Nc1ccc(O)cc1,inconclusive: 2.1 nM
8,CC1CCCCN1CC(=O)Nc1sc2c(c1C#N)CCC2 (stereo unspecified),inactive
9,CC(C)c1nc2n[nH]c(N)c2c2c1CCCC2,inconclusive: 4.6 nM
10,Cc1cc(NCCNC2=CC(=O)CCC2)nc2ccccc12,inconclusive: 7.3 nM
11,CC1CN(C(=O)c2cc3cc(Cl)cc(Cl)c3oc2=O)CC(C)O1 (stereo unspecified),inconclusive: 5.6 nM
12,CCOC(=O)CC(=O)CSc1nc2ccccc2c(=O)n1-c1ccc(C(=O)N2CCOCC2)cc1,inconclusive: 2 nM
13,O=C(O)CCc1ccc(-c2ccc(F)cc2)n1CCC(=O)O,active: 10 nM
14,COCCn1c(=O)c(-c2ccc(F)cc2)nc2cnc(OCc3ccccc3)nc21,active: 18 nM
15,O=c1[nH]c(NCc2ccccc2)nc2c1CCC2,inconclusive: 1.9 nM
16,COC(=O)c1ccccc1S(=O)(=O)N(CCCO)Cc1cc2c(C)ccc(C)c2[nH]c1=O,inconclusive: 6.2 nM
17,Cc1c(Cl)cccc1N1C(=O)C2ON(c3ccccc3)C(c3cccnc3)C2C1=O (stereo unspecified),inconclusive: 2.2 nM
18,O=C(CSc1nc2c(sc3ccccc32)c(=O)n1CCO)NCC1CCCO1 (stereo unspecified),inconclusive: 6.4 nM
19,O=C(NCc1cccc(Cl)c1)c1cnccn1,inconclusive: 1.2 nM
20,CCCc1cn(S(=O)(=O)c2ccc(OC)cc2OC)nc1N,inconclusive: 4.6 nM
21,O=C(c1cc(C(F)(F)F)cc(C(F)(F)F)c1)N1CCC2(CCCN(Cc3ccccc3)C2)CC1,inactive
22,COC(=O)CCc1c(C)[nH]c(C(=O)OCc2ccccc2)c1C,active: 7600 nM
23,N#CCCN(CCC#N)c1nnc(-c2ccccc2)s1,inconclusive: 1.1 nM

row,SMILES,max dye-equivalent concentration
1,Cc1ccc2[nH]c(=O)c(CNC(C)(C)C)cc2c1,inconclusive: 8.2 nM
2,Cc1ccc2[nH]c(=O)c(C(c3nnnn3CC3CCCO3)N3CCc4ccccc4C3)cc2c1 (stereo unspecified),active: 11 nM
3,C1CCN2C[C@@H]3C[C@@H](CN4CCCC[C@H]34)[C@H]2C1,inactive
4,COc1cccc(Cn2c(=O)c(C)nc3cnc(N4CCNCC4)nc32)c1,inconclusive: 6.4 nM
5,COc1cc(OC)cc(-c2nnc(SCC(=O)N3c4ccccc4Sc4ccccc43)o2)c1,inactive
6,COC(=O)c1c(NS(C)(=O)=O)sc2c1CCCC2,inconclusive: 3.1 nM
7,CCOC(=O)CNC(=O)c1cn(CC)c(=O)c2cc(OC)c(OC)cc12,inconclusive: 4.5 nM
8,CC(C)CN1CC[C@@]2(CCCN(C(=O)c3csnn3)C2)C1,inactive
9,COCCn1c(=O)c(-c2ccc(F)cc2)nc2cncnc21,inconclusive: 1.1 nM
10,C=C(c1cccc2ccccc12)P(=O)(O)O,inconclusive: 1.1 nM
11,O=C(CSc1nnc2scc(-c3ccccc3)n12)NCc1ccc2c(c1)OCO2,inconclusive: 3.3 nM
12,Cc1ccccc1C(=O)Nc1ccc2c(c1)OCO2,inconclusive: 3.6 nM
13,O=C(Cc1c(O)c2ccccc2[nH]c1=O)NCc1ccc(F)cc1,inactive
14,COCCn1c(=O)c(-c2cn(C)c3ccccc23)nc2cnc(OCc3ccccc3)nc21,inactive
15,O=c1[nH]c(=O)n([C@@H]2C[C@H](O)[C@H](CO)O2)cc1C(F)(F)F,inactive
16,CCOC(=O)c1[nH]c2ccc(C)cc2c1NC(=O)CN1CCCCC1,inconclusive: 2.1 nM
17,CCc1nc(Nc2ccc3nccnc3c2)c2oc3ccccc3c2n1,active: 82 nM
18,COc1cc2[nH]c(=S)n(CCN3CCCCC3C)c(=O)c2cc1OC (stereo unspecified),inactive
19,Cc1cc(N2CCC(C)CC2)n2nc(C)c(-c3ccccc3)c2n1,inconclusive: 4.1 nM
20,COc1ccc(NC(=O)N2CCCC3(CCN(C(=O)c4c(C)noc4C)CC3)C2)cc1,inactive
21,CCSc1nc2ccccc2n1CC(=O)N1CCCCC1,inconclusive: 5.9 nM
22,O=C(O)CCCCCNC(=O)CCn1nnc2ccccc2c1=O,inconclusive: 2.8 nM
23,O=C(CCNS(=O)(=O)c1cccc2nonc12)NCc1cccs1,inactive

row,SMILES,max dye-equivalent concentration
1,CC(=O)N(C(C)=O)c1c(C#N)c(C)n(-c2ccccc2)c1C(=O)c1ccccc1,inconclusive: 1.2 nM
2,COc1ccc(NCc2nnc(SCC(=O)N3CCCc4ccccc43)n2C)cc1,inconclusive: 1.3 nM
3,Cc1cc(C)n(CCOC(=O)c2sc3ccccc3c2Cl)n1,inactive
4,O=C(Cn1cnc2c(nnn2-c2ccc(F)cc2)c1=O)N1CCCC1,inactive
5,COCCn1c(C(C)C)nc2oc3ccccc3c(=O)c2c1=O,inconclusive: 4.9 nM
6,O=C(Nc1ccc2c(c1)Cc1ccccc1-2)[C@@H]1[C@H](C(=O)O)[C@]2(Cl)C(Cl)=C(Cl)[C@@]1(Cl)C2(Cl)Cl,inactive
7,CN(C)S(=O)(=O)c1ccc(Nc2ccc(O)c3c2C(=O)c2c([N+](=O)[O-])ccc(O)c2C3=O)cc1,inactive
8,O=C(CCCN1Cc2ccccc2C1)c1ccc(F)cc1,inconclusive: 1.9 nM
9,CCOC(=O)c1c(N)sc2c1CCS(=O)(=O)C2,inactive
10,Cc1cccc(CNc2ncnc3ccc(-c4ccccc4CN(C)C)cc23)c1,inactive
11,O=C(O)CCC(=O)N1CCc2cc(S(=O)(=O)NC3CCCc4ccccc43)ccc21 (stereo unspecified),inconclusive: 2.2 nM
12,CCOC(=O)CSc1nc(N)c(C#N)c(-c2ccc(OCC)cc2)c1C#N,active: 75 nM
13,Cc1onc(-c2c(F)cccc2Cl)c1C(=O)N1CCc2ccccc2C1,inconclusive: 1.4 nM
14,O=C(NCc1ccccn1)c1ccc2nc(-c3ccco3)c(-c3ccco3)nc2c1,inconclusive: 9.1 nM
15,CCc1ccc2oc(-c3cc(N)ccc3O)nc2c1,inconclusive: 1.4 nM
16,CCOC(=O)c1oc2ccccc2c1CN1CCOCC1,inactive
17,CC1CN(c2oc(-c3cccs3)nc2C#N)CC(C)O1 (stereo unspecified),active: 1700 nM
18,OCc1ccc(-c2nn(Cc3ccccc3)c3ccccc23)o1,inconclusive: 2.5 nM
19,COc1cccc(C2C(C(=O)Nc3ccc(C)cc3C)=C(C)Nc3ncnn32)c1OC (stereo unspecified),inconclusive: 1.7 nM
20,Cc1ccc(S(=O)(=O)Nc2cc(C(=O)NCCN3CCCC3)ccc2N2CCCCC2)cc1,inactive
21,COc1ccc(S(=O)(=O)N[C@@H](Cc2ccccc2)C(=O)N2CC[C@@]3(O)CCCC[C@H]3C2)cc1,inconclusive: 1.8 nM
22,CC(=O)c1c(O)c(C)c(O)c2c1OC1=CC(=O)[C@H](C(C)=O)C(=O)[C@]12C,inactive

# Copied from above, 19 compounds:
row,SMILES,max dye-equivalent concentration
1,CC(=O)N(C(C)=O)c1c(C#N)c(C)n(-c2ccccc2)c1C(=O)c1ccccc1,inconclusive: 1.2 nM
2,COc1ccc(NCc2nnc(SCC(=O)N3CCCc4ccccc43)n2C)cc1,inconclusive: 1.3 nM
3,Cc1cc(C)n(CCOC(=O)c2sc3ccccc3c2Cl)n1,inactive
4,O=C(Cn1cnc2c(nnn2-c2ccc(F)cc2)c1=O)N1CCCC1,inactive
5,COCCn1c(C(C)C)nc2oc3ccccc3c(=O)c2c1=O,inconclusive: 4.9 nM
6,O=C(Nc1ccc2c(c1)Cc1ccccc1-2)[C@@H]1[C@H](C(=O)O)[C@]2(Cl)C(Cl)=C(Cl)[C@@]1(Cl)C2(Cl)Cl,inactive
7,CN(C)S(=O)(=O)c1ccc(Nc2ccc(O)c3c2C(=O)c2c([N+](=O)[O-])ccc(O)c2C3=O)cc1,inactive
8,O=C(CCCN1Cc2ccccc2C1)c1ccc(F)cc1,inconclusive: 1.9 nM
9,CCOC(=O)c1c(N)sc2c1CCS(=O)(=O)C2,inactive
10,Cc1cccc(CNc2ncnc3ccc(-c4ccccc4CN(C)C)cc23)c1,inactive
11,O=C(O)CCC(=O)N1CCc2cc(S(=O)(=O)NC3CCCc4ccccc43)ccc21 (stereo unspecified),inconclusive: 2.2 nM
12,CCOC(=O)CSc1nc(N)c(C#N)c(-c2ccc(OCC)cc2)c1C#N,active: 75 nM
13,Cc1onc(-c2c(F)cccc2Cl)c1C(=O)N1CCc2ccccc2C1,inconclusive: 1.4 nM
14,O=C(NCc1ccccn1)c1ccc2nc(-c3ccco3)c(-c3ccco3)nc2c1,inconclusive: 9.1 nM
15,CCc1ccc2oc(-c3cc(N)ccc3O)nc2c1,inconclusive: 1.4 nM
16,CCOC(=O)c1oc2ccccc2c1CN1CCOCC1,inactive
17,CC1CN(c2oc(-c3cccs3)nc2C#N)CC(C)O1 (stereo unspecified),active: 1700 nM
18,OCc1ccc(-c2nn(Cc3ccccc3)c3ccccc23)o1,inconclusive: 2.5 nM
19,COc1cccc(C2C(C(=O)Nc3ccc(C)cc3C)=C(C)Nc3ncnn32)c1OC (stereo unspecified),inconclusive: 1.7 nM
